Measurements published in patent US20260183350A1, “ANTIBIOTIC-RESISTANT BACTERIA” (priority 2022, published 2026).
For at least one compound, name, drawing or mass did not settle the structure.

Assays:
[1] = test system: NDM-1 Enterobacter cloacae; experiment: Nitrogen utilisation assay; assay type: cell-based; conditions: anaerobic; M9 minimal medium with glucose, 0.1% (w/v) nitrogen source
Description: (§1) New Delhi Metallo-β-lactamase 1 (NDM-1) Escherichia coli, NDM-1 Klebsiella pneumoniae, and NDM-1 Enterobacter cloacae were isolated from patients with intestinal CRE colonisation from the Imperial College Healthcare NHS Trust via rectal swab (REC ref. 19/LO/0112). The species were assigned by matrix assisted laser desorption ionization-time of flight (MALDI-TOF) mass spectrometry and later confirmed with 16S rRNA gene sequencing. CRE status was determined using X-pert Carba-R PCR detection (Cepheid, Sunnyvale, CA, USA), (Otter, J. A. et al. Detecting carbapenemase-producing Enterobacterales (CPE): an evaluation of an enhanced CPE infection control and screening programme in acute care. J Antimicrob Chemother 75, 2670-2676 (2020)).
(§2) Growth of CRE isolates on sole carbon or nitrogen sources was tested by inoculating each CRE isolate into a minimal medium supplemented with the nutrient of interest. First, CRE isolates were passaged from frozen glycerol stocks on Reasoner's 2A agar (R2A) plates. Cells were then suspended in M9 minimal media to a turbidity of 42% using a Turbidimeter (Biolog Inc.), then diluted a further 1 in 6 to inoculate the carbon or nitrogen utilisation assays. M9 minimal media contained the following (at final concentrations): 22 mM KH2PO4, 42 mM Na2HPO4, 9 mM NaCl, 0.49 mM MgSO4·7H2O, 0.09 mM CaCl2), 0.011 mM FeSO4·7H2O. For the carbon assays the M9 minimal medium was also supplemented with 0.1% (w/v) NH4Cl (as the nitrogen source) and the carbon sources were individually tested at 0.5% (w/v) concentration. For the nitrogen assays the M9 minimal medium was also supplemented with 0.5% (w/v) glucose (as the carbon source) and the nitrogen sources were individually tested at 0.1% (w/v) concentration. Cultures were incubated anaerobically and aerobically in a plate reader and OD600 readings were collected every 15 minutes for 24 hours.
(§3) Growth curves were analysed in Python (v3.6.5) using the AMiGA software (Midani, F. S., Collins, J. & Britton, R. A. AMiGA: Software for Automated Analysis of Microbial Growth Assays. mSystems 6, e0050821 (2021)). Growth of each isolate was measured with 6 wells from 2-3 independent experiments. Growth curves were normalised to the no substrate control using the subtraction method. AMiGA performed Gaussian Process regression to test differential growth between the substrate and the no substrate control. The functional difference in the OD (and its credible interval) was also computed between the substrate and the no substrate control.

[2] = test system: NDM-1 Escherichia coli; experiment: Nitrogen utilisation assay; assay type: cell-based; conditions: anaerobic; M9 minimal medium with glucose, 0.1% (w/v) nitrogen source
Description: as §1, §2, §3

[3] = test system: NDM-1 Klebsiella pneumoniae; experiment: Nitrogen utilisation assay; assay type: cell-based; conditions: M9 minimal medium with glucose, 0.1% (w/v) nitrogen source
Description: as §1, §2, §3

[4] = test system: vancomycin-resistant E. faecalis; experiment: VRE nutrient utilization protocol: nitrogen sources, leave-one-out; assay type: cell-based, Enterococcus faecalis; conditions: aerobic; leave-one-out from nitrogen source mixture in minimal medium
Description: VRE minimal media consists of potassium phosphate monobasic (4 g/L), potassium phosphate dibasic (14 g/L), sodium citrate (1 g/L), magnesium sulphate (0.2 g/L), ammonium sulphate (2 g/L), adenosine (0.04 g/L), thymine (0.04 g/L), Kao and Michayluk vitamin solution [Sigma, K3129, 50× Stock](5×), glucose (1 g/L) and amino acid solution [Sigma, R7131, RPMI-1640, 50×](25×). If the study was performed under anaerobic conditions, fumarate (5.2 g/L) was added to increase growth of VRE strains. Carbon-free minimal media was prepared by leaving out glucose while nitrogen-free minimal media was prepared without the amino acid solution. Media was filter sterilized with a 0.22 micron filter and used immediately aerobically or degassed overnight if used anaerobically.
VRE strains were grown on R2A overnight before the cells were suspended in 0.9% saline to an OD of 0.38 (λ=595 nm). […] Both carbon and nitrogen source utilization were evaluated by adding the inoculated media and a filter-sterilised nutrient source solution into a well in a 1:1 ration to a final volume of 100 μL in aerobic tests and 200 μL in anaerobic tests. […] The aerobic plate reader was set to read the plate (λ=595 nm, 37° C., 22 flashes per well, orbital shaking of 100 rpm for 15 s prior to each read) every 15 minutes for 24 hours. The anaerobic plate reader read the plate (λ=595 nm, 37° C., stationary) every 15 minutes for 24 hours.

N[C@@H](CC(=O)O)C(=O)O [aspartate, L-aspartate]
could use: Use as sole nitrogen source to support E. cloacae growth [1] | Use as sole nitrogen source to support E. coli growth [2] | Use as sole nitrogen source to support K. pneumoniae growth ([3]; aerobic) | Use as sole nitrogen source to support K. pneumoniae growth ([3]; anaerobic) | Use as nitrogen source to support E. faecalis growth [4]
